Experimental data reported in patent publication US6355481.
No constants are given. Whether binding was seen depends on the method and setting. Some entries that bind do so weakly or less than the wild type.

By UniProt entry, the sequences of proteins in these tests, tags left out. Residues count along the entry.
UniProt P42858, residues 1-253: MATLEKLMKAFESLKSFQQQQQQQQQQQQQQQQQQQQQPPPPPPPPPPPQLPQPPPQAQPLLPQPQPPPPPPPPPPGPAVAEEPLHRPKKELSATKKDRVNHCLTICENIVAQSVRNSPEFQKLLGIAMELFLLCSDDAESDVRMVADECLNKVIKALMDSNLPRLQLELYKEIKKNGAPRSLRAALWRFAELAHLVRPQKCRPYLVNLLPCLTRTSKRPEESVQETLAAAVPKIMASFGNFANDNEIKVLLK

Target: N-terminal region of human huntingtin protein (amino acids 1-253) with 23 glutamines (HD-23Q) (human) (UniProt P42858)
Assay: colocalisation by double immunofluorescence in transfected PC12 cells

B1: HAP1-A (Huntingtin Associated Protein 1-A) (protein, UniProt P54256-2 1-599, looked up)
chain: MRPKDQVQSSAGDGTGSGDPATGTPTTQPAADPAPEPSAEPKPAPAQGTGSGQKSGSRTKTGGSFCRSRIRGDSDAPWTRYIFQGPYGPRATGLGTGRAEGIWKTPAAYIGRRPGVSGPERAAFIRELQEALCPNPLPRKKITEDDIKVMLYLLEEKERDLNTAARIGQSLVKQNSVLMEENNKLETMLGSAREEILHLRKQVNLRDDLLQLYSDSDDDEEDEEDEEEEEGEEEEREGQRDQDQQHDHPYGAPKPPPKAETLHHCPQLEALKQKLKLLEEENDHLREEASHLDNLEDKEQMLILECVEQFSEASQQMAELSEVLVLRLEGYERQQKEITQLQAEITKLQQRCQSYGAQTEKLQQQLASEKGVHPESLRAGSHMQDYGSRPRERQEDGKSHRQRSSMPAGSVTHYGYSVPLDALPSFPETLAEELRTSLRKFITDPAYFMERCDTRCREERKKEQGTMPPPPVQDLKPPEDFEAPEELVPEEELGAIEEVGTAEDGPAEETEQASEETEAWEEVEPEVDEATRMNVVVSALEASGLGPSHLDMKYVLQQLSNWQDAHSKRQQKQKVVPKGECSRRGHPPASGTSYRSSTL
  binding: binds
